Results published in PubChem BioAssay AID1794845 (National Center for Advancing Translational Sciences (NCATS), 2023).
Among all 6,900 compounds or so, fewer than 10 were called active. The call rests on the fitted dose curve; in most records, active means well fitted curve in the direction sought with a large enough effect; inconclusive means small, poorly fitted or top-dose-only effect, or another doubt; inactive means no such curve, though single readings can be large or run the other way. The list shows a part of the results.

Chains of the proteins cited; added tags and fusions are not shown. Lines headed by an entry give the natural chain unless they say otherwise; changes in a name come on top.
UniProt C7C422: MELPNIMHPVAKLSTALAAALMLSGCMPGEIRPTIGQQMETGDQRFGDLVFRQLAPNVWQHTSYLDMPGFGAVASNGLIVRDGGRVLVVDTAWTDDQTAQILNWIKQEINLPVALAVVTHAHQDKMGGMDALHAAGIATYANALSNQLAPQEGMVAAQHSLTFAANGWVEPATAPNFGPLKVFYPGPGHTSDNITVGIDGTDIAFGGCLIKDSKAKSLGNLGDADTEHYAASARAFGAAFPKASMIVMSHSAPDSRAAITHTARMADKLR

biological target: Metallo-beta-lactamase type 2 (Klebsiella pneumoniae) (UniProt C7C422); test: qHTS to identify inhibitors of the New Delhi Metallo-beta-lactamase (NDM): primary screen against the NCATS Gemini Collection; settings: NDM-1 enzyme, meropenem hydrolysis, absorbance 300 nm; at 38.4 µM (top of the series) unless noted; further: % of control where 0% means no effect
In short: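 Meropenem hydrolysis (50 uM final) by 2 nM NDM-1 read as 300 nm absorbance after 30 min, following >30 min compound–enzyme preincubation in HEPES pH 7.0 with 1 uM ZnSO4 and 0.01% Tween20.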

Activity % (negative = inhibition), inactive:
C[S+](=O)([O-])N1C2CCC1CN(c1ccc(C(F)(F)F)cc1)C2 4.56%, Cn1nc(N2CCC(NC(=O)c3ncccn3)CC2)ccc1=O -1.3%, COc1ccc(C(C)NC(=O)c2ccc(Cn3ccn4nc5c(c4c3=O)CCCC5)cc2)cc1OC (configuration not stated) 1.76%, CN1C[C@H](C(=O)Nc2ccccc2)C[C@H]1c1cccc(C(F)(F)F)c1 -1.94% [at 57.5 µM], CC(=O)N1CCC2(C1)N=C(c1ccccn1)C(=O)N2 (configuration not stated) 12.6% [at 57.5 µM], CC(C)CN1C(=O)c2cccn2CC1C(=O)N(C)Cc1cccnc1 (configuration not stated) 4.23%, Cc1cccc(CC(=O)N2CCCCC2c2nc(C3CC3)n[nH]2)c1 (configuration not stated) 0.916%, COC1CCN(CC2CCCCCN2)CC1 (configuration not stated) -2.65%, COc1ncccc1-c1nccn2c(C3CN(Cc4ccccc4O)C3)ncc12 38% [at 57.5 µM], O=C(c1cc(F)ccc1F)N1CCCCC1c1nc(-c2cnccn2)n[nH]1 (configuration not stated) 32.8%, COC1CCC12CCN(C(=O)c1cnc(C)cn1)CC2 (configuration not stated) 10.9%, COc1ccc(CN2CC(Oc3ccccc3C(=O)NCc3ccccc3)C2)c(OC)c1 10.8%, CCCCNC(=O)c1cccc(-c2cc(N3CCN(C)CC3)nc(N)n2)c1 -0.441%, Cc1cc(C)n(CC(=O)N2CCC(c3nc(CCOCC4CCCC4)no3)C2)n1 (configuration not stated) 37.5%, O=C(CCN1CCCCO1)N1CCOC(CCCc2ccccc2)C1 (configuration not stated) -2.44%, CCn1cc(CN2CCCC23CCN(c2cc(C)nc4ccccc24)CC3)c(C)n1 10.9%, Cc1ncoc1C(=O)N1CC[C@@H]2COCCN(Cc3ccncc3)[C@@H]2C1 12.6%, COCCN[C@H]1[C@@H]2OC[C@@H](O2)[C@@H](NCc2cnc3ccccc3c2)[C@@H]1O 1.55% [at 57.5 µM], COc1ccc(CCc2nc(C3CC(=O)N(c4ccc(Cl)cc4)C3)no2)cc1 (configuration not stated) 0.433%, COC(=O)C1=CN(Cc2cccc(Cl)c2)S(=O)(=O)N=C1C 6.3%, CC(=O)Nc1ccc(CN2CC3(Cc4ccccc4NC3=O)C2)cc1 -14.1%, CN1C(=O)c2cccn2CC1C(=O)NC1CCCC1 (configuration not stated) 2.09%, CC(C)Cn1c(CNC(=O)OC(C)(C)C)nc2cccnc21 1.49%, Cc1ncccc1-c1nc2cc(C(=O)NCc3ccccc3F)ccc2o1 56% [at 57.5 µM], COc1ccc(CNC(=O)C[C@@H]2CCNC[C@@H]2Cc2cc(C(C)(C)C)on2)cc1 -0.141% [at 57.5 µM], CC(=O)NCCC(=O)N1CCC2(CC1)CN(C(=O)NC(C)C)CCO2 -0.28%, CC(C)CCN1CCNC(=O)C1CC(=O)N(Cc1cnn(C)c1)C1CC1 (configuration not stated) 3.07%, COc1ccc(-c2cc3c(=O)n(CCNC(=O)c4ccsc4)ccn3n2)cc1 4.04%, CCOc1ccc(-c2cc3c(=O)n(CCNC(=O)c4cnccn4)ccn3n2)cc1 -2.03%, COc1ccc(-c2cc(C(=O)NCC3CC3)c3c(C4CCNC4)noc3n2)cc1 (configuration not stated) -1.11%, O=C(C1CCCN(c2cnn(Cc3ccccc3)c(=O)c2)C1)N1CCCN(c2ncccn2)CC1 (configuration not stated) -1.04%, COc1ccc(CNC(=O)[C@H]2CNC[C@H](C(=O)N3CCCC3)C2)c(F)c1F 0.352%, CC(=O)NC1(C)CCCN(Cc2cc(-c3c(C)noc3C)cs2)C1 (configuration not stated) 44.6% [at 57.5 µM], CCCNC(=O)N1CCc2nc(N3CCN(C)CC3)sc2C1 5.25%, CCOc1ccc(-c2ccnc(NC[C@@H]3CCCO3)n2)cc1C(=O)O 10.2%, O=C(c1ccc(C(F)(F)F)cc1)N1CCCC(C(=O)N2CCC(N3CCOC3=O)CC2)C1 (configuration not stated) 2.03%, OCCC1CCN(c2ccc(-c3nc(CCCc4ccccc4)no3)cn2)CC1 11.7%, Cc1ccsc1C(=O)N1CCC(c2nc(CCOCC3CC3)no2)C1 (configuration not stated) -4.81%, O=C(O)C1CCc2nnc(C3CCCN([S+](=O)([O-])c4cccc(C(F)(F)F)c4)C3)n21 (configuration not stated) 1.06%, C[C@@H](NC(=O)C1CCCC1)c1onc(-c2cccnc2)c1C(=O)O 13.7% [at 57.5 µM], C[S+](=O)([O-])N1CCN(c2nccc(Nc3ccccc3F)n2)CC1 6.45%, O=C(COc1ccccc1)N1C[C@@H]2C[C@H](C1)c1ccc(-c3cccc(C(F)(F)F)c3)c(=O)n1C2 1.7%, CN(C)c1cc(CC2CC(=O)N(c3ccccc3)C2)ncn1 (configuration not stated) 4.42%, CN1CCCCCCN(C(=O)c2cccn2C)[C@H]2CCC[C@H]2C1=O 0.129%, CCC(O)c1cc2n(n1)CCN(Cc1nccn1Cc1ccccc1)C2 (configuration not stated) -7.19%, Cn1c(CNC(=O)CC2CCN(S(C)(=O)=O)C2)nc2ccccc21 (configuration not stated) -2.02%, CCN1C(=O)N(Cc2cccc(OC)c2)C(=O)C12CCN(Cc1nc3ccccc3n1C)CC2 -5.21%, COCC1CN(C(=O)c2ccc(OC)nc2OC)CC12CCNCC2 (configuration not stated) 0.277%, Cn1nccc1C(=O)N1C[C@@H](COc2ccccc2)[C@H](C(N)=O)C1 0.403%, CN1CCC(Cc2ccc(C(=O)N3CCCC3)cc2)CC1 -12.9%, COc1cccc(COC2CN(CCc3ccccc3)C(=O)CN(C(=O)CN3CCOC3=O)C2)c1 (configuration not stated) 10.9%, Cc1noc(-c2cn(C3CCN(C(=O)c4ccc(C)s4)CC3)nn2)n1 2.54%, CN(C)CC(O)c1cc2n(n1)CCCN(C(=O)c1cccn1C1CC1)C2 (configuration not stated) -0.794%, CCCNC(=O)N1CCOC[C@H](Oc2ccc(C(F)(F)F)cn2)C1 -3.91% [at 57.5 µM], O=S(=O)(Cc1cccc(Cl)c1)NCCc1noc(-c2ccccc2)n1 -1.47%, O=C(NCc1nnc2n1CCCCC2)C1CC2(CCNCC2)CN1 (configuration not stated) -2.67%, O=C(c1ccccn1)N1CC(F)(F)C[C@H]1c1nc(-c2ncccn2)no1 0.767%, O=C(NCC1CCCO1)c1cc(-c2ccccc2F)cc2c1OCCN2Cc1cccnc1 (configuration not stated) 2.1%, CN(C(=O)c1ccccc1)C1CCOc2ccccc21 (configuration not stated) 11.8% [at 57.5 µM], COc1ccccc1OC1CCN(Cc2ccccc2C#N)CC1 -5.98%, COc1ccc(C2(C(=O)N3CCOCC3)CCOCC2)cc1 2.32%, O=C(NCC1CCC(=O)N(Cc2ccccc2)CC1)C1CCCCC1 (configuration not stated) 2.91%, CN(C)S(=O)(=O)N1CCC(Oc2ccc(C(=O)NCCc3ccncc3)cc2)CC1 10.4%, Cn1nc(C2CCCC2)cc1N[S+](=O)([O-])c1ccccc1 10.5% [at 57.5 µM], COCCN1C(=O)CC[C@]2(C(=O)NCc3cccs3)CCCC[C@@H]12 -0.247%, C[S+](=O)([O-])N1CC2(CCCCN2Cc2ccccn2)Cc2ccccc21 (configuration not stated) 1.72%, CCCCN1CCN(C(=O)C2(c3ccc(NS(C)(=O)=O)cc3)CCCCC2)CC1 6.62%, CC1CCN(CC2CCCCCN2C(=O)CC2CCCC2)CC1 (configuration not stated) -2.16%, COc1cccc(CNC(=O)c2cn3cc(-c4cccc(OC)c4)sc3n2)c1 25.5%, C[C@]1(CO)[C@H]2Cc3sc(NC(=O)c4ccco4)nc3[C@@H](CC(=O)NC3CCCC3)[C@]2(C)CC[C@H]1O 14%, CN(C)CCC(=O)N1Cc2ccccc2CC2(CCCN2Cc2cccnc2)C1 (configuration not stated) 0.168%, COCC1CN(C)CC12CCN(C(=O)COc1cccc(C)c1)CC2 (configuration not stated) 0.322%, CC(C)c1noc(-c2ccn3c(CNC(=O)c4ccoc4)nnc3c2)n1 4.33%, O=C1Nc2ccccc2CC12CCCN(C1COC1)C2 (configuration not stated) 2.76% [at 57.5 µM], COc1ccccc1CNC(=O)c1cc2c(N3CCSCC3)nc(C)cn2n1 22.7%, CC1(C)[C@H](Cc2cc(CC3CCCCC3)on2)C[C@@H]1NC1CCOCC1 4.65% [at 57.5 µM], O=C(c1ccc(F)cc1Cl)N1CCN(C(=O)c2nnn3c2COC(c2ccccc2)C3)CC1 (configuration not stated) -0.584%, CC1(C(=O)O)CCN(C(=O)c2cccc(Cl)c2)CC1 -12.5% [at 57.5 µM], CNc1nccnc1-c1cccc(CN2CCOCC2)c1 22.6%, COCCN1CC(CO)C2(CCN(C(=O)Cc3c(C)noc3C)CC2)C1 (configuration not stated) -0.0207%, Cc1cccc(-n2cc(CN(C)C(C)c3ccon3)c(-c3cccc(F)c3)n2)c1 (configuration not stated) 16%, CN(CCc1ccccn1)[C@H]1[C@@H]2OC[C@@H](O2)[C@@H](NCc2ccncc2)[C@@H]1O 24.8% [at 57.5 µM], O=C1NCC2(CCCN(C(=O)c3cnc4c(O)cccn4c3=O)C2)O1 (configuration not stated) 41.7%, Cc1cc(CNC(=O)Cc2nonc2C)c2[nH]c(-c3ccccc3)c(C)c2c1 25.4%, c1ccc(OCCCCN2CCOCC2)c(CNC2CCNC2)c1 (configuration not stated) 4.61%, COc1ccc(Cl)cc1NC(=O)CCC1CCCN(C(=O)CCc2scnc2C)C1 (configuration not stated) 5.38%, CN(C)C(=O)N1C[C@@H]2CN(C3CCOCC3)C[C@]2(C(=O)O)C1 -0.344%
